The values below come from publication PMC8580968.

Amino acid sequences for entries named in this document (tags omitted).
UniProt O75317: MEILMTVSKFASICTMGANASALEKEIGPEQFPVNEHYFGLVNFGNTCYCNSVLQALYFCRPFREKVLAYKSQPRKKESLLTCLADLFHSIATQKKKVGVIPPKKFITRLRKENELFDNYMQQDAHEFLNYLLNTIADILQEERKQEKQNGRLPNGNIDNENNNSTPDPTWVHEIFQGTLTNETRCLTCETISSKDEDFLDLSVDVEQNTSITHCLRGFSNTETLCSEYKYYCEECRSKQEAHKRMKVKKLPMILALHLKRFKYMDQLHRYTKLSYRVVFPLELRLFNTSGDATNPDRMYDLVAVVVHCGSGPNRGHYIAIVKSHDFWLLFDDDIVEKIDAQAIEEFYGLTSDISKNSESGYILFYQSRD

No constants are given. Whether binding was seen depends on the method and setting. Binding seen in cells or lysates may run through a third protein. Some entries that bind do so weakly or less than the wild type. For part of these data: Sequences can lack the tags named with a protein.

In assay [1] the target is T1, endogenous midkine (MDK) (human (endogenous in MDA-MB-231)) (UniProt P21741).
T1 sequence: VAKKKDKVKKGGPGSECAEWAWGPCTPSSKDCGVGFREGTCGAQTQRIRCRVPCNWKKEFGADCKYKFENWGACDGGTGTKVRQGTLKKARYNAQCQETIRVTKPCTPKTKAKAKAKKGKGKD
Description: co-IP; endogenous proteins from MDA-MB-231 cells; anti-MDK antibody used for capture; endogenous USP12 and MDK examined by immunoblotting. A general note: Immunoblotting shows a protein as a band on a membrane.

For another assay, the target named is T2, midkine (MDK)-GST (UniProt P21741).
T2 sequence: T1 sequence
The experiment in a line: pull-down; USP12-Flag and MDK-GST co-transfected into HEK293T cells; MDK-GST pulled down with glutathione-Sepharose 4B slurry beads; immunoblotting.

In assay [2] the target is ubiquitin-specific protease 12 (USP12)-Flag (UniProt O75317). Description: co-IP; USP12-Flag and MDK-GST co-transfected into HEK293T cells for 48 h; lysate incubated with anti-Flag M2 affinity gel overnight at 4 °C; beads washed with PBS three times; western blot.

In the case of “endogenous USP12 (from UniProt O75317 1-370) (enzyme)”, the binding entry in assay [1] is reported as “binds”. As to “ubiquitin-specific protease 12 (USP12)-Flag (from UniProt O75317 1-370) (enzyme)”, the binding entry in the assay with midkine (MDK)-GST is “binds”.

B1: midkine (MDK)-GST (protein, UniProt P21741 21-143)
chain: T1 sequence
For the molecule B1, the binding entry in assay [2] is reported as “binds”.
